The subject of experiment [1] is ReNCell VM. As to the kind of experiment: neuronal differentiation score (DCX+ cell fraction vs untreated, manual image score) (score (-3 to 3)); higher = more neuronal differentiation. As to conditions: 2 uM, 2 weeks.
In experiment [2] the test system is ReNCell VM. The experiment in a line: dopaminergic neuron differentiation score (TH+ cell fraction vs untreated, manual image score) (score (0 to 3)); higher = more TH+ dopaminergic neuron differentiation. To be noted: 2 uM, 4 weeks, BDNF 10 ng/ml + GDNF 10 ng/ml.

The structures appear in SMILES notation. Counter-ions that a name gives are not always drawn. The list shows a part of the results. This data set is noisy: repeats of one test often differ as much as different tests do.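 ReNCell VM, a human fetal ventral-midbrain neural progenitor line, was differentiated without mitogens. Blinded raters scored images stained for doublecortin (early neurons) or tyrosine hydroxylase (dopaminergic neurons) against untreated wells (0 = no change). Scores were averaged across repeats and both raters, and compounds averaging 2 or more were selected as hits for retesting.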

With `COc1ccccc1OCC(O)COC(N)=O` (stereo not drawn) [Methocarbamol], the neuronal differentiation score in the experiment with ReNCell VM [1] (library: Prestwick) was inactive: 0. Also, the “dopaminergic neuron differentiation score” value in the experiment on ReNCell VM [2] (library: Prestwick) is inactive: 0.

Take `C=C1/C(=C\C=C2/CCC[C@]3(C)[C@@H]([C@H](C)CCCC(C)C)CC[C@@H]23)C[C@@H](O)C[C@@H]1O` [Alfacalcidol]: the neuronal differentiation score with ReNCell VM [1] (library: Prestwick) was inactive: 0. For the same compound, in the experiment with ReNCell VM [2] (library: Prestwick), the “dopaminergic neuron differentiation score” value is inactive: 0.

With `C=CC(C)(C)c1c2c(c(O)c3c(=O)c4ccc(O)c(O)c4oc13)C=CC(C)(C)O2` [macluraxanthone], in the experiment on ReNCell VM [1] (library: Natural), the neuronal differentiation score was inactive: 0. In addition, the “dopaminergic neuron differentiation score” value in the experiment with ReNCell VM [2] (library: Natural) is inactive: 0.

As to `Clc1ccc(C(c2ccccc2Cl)C(Cl)Cl)cc1` (stereo not drawn) [1-(2-Chlorophenyl)-1-(4-chlorophenyl)-2,2-dichloroethane], the neuronal differentiation score with ReNCell VM [1] (library: LOPAC) was inactive: 0. The “dopaminergic neuron differentiation score” value with ReNCell VM [2] (library: LOPAC) was inactive: 0.

Turning to `CC(C)[N+](C)(CCOC(=O)C1c2ccccc2Oc2ccccc21)C(C)C`, the neuronal differentiation score in the experiment with ReNCell VM [1] (library: Spectrum) is inactive: 0. Moreover, in the experiment on ReNCell VM [2] (library: Spectrum), the “dopaminergic neuron differentiation score” value is inactive: 0.

Turning to `NC1(C(=O)O)CC1`, in the experiment on ReNCell VM [1] (library: Spectrum), the neuronal differentiation score is inactive: 0. Also, the “dopaminergic neuron differentiation score” value in the experiment with ReNCell VM [2] (library: Spectrum) is inactive: 0.

Consider `CC(=O)OCC(=O)NCCCOc1cccc(CN2CCCCC2)c1`, for which, in the experiment on ReNCell VM [1] (library: Spectrum), the neuronal differentiation score is inactive: 1. In the experiment on ReNCell VM [2] (library: Spectrum), the “dopaminergic neuron differentiation score” value is inactive: 0.

Turning to `OC(c1ccccc1)C1CCN(CCc2ccccc2)CC1` (stereo not drawn), in the experiment with ReNCell VM [1] (library: Tocriscreen), the neuronal differentiation score was inactive: 0. In addition, the “dopaminergic neuron differentiation score” value with ReNCell VM [2] (library: Tocriscreen) was inactive: 0.

Take `CN[C@H](CC(C)C)C(=O)N[C@H]1C(=O)N[C@@H](CC(N)=O)C(=O)N[C@H]2C(=O)N[C@H]3C(=O)N[C@H](C(=O)N[C@H](C(=O)O)c4cc(O)cc(O)c4-c4cc3ccc4O)[C@H](O)c3ccc(c(Cl)c3)Oc3cc2cc(c3O[C@@H]2O[C@H](CO)[C@@H](O)[C@H](O)[C@H]2O[C@H]2C[C@](C)(N)[C@H](O)[C@H](C)O2)Oc2ccc(cc2Cl)[C@H]1O` [Vancomycin hydrochloride]: the neuronal differentiation score in the experiment on ReNCell VM [1] (library: Prestwick) is inactive: 0. Also, in the experiment with ReNCell VM [2] (library: Prestwick), the “dopaminergic neuron differentiation score” value is inactive: 1.

Take `Cc1cnc(NC(=O)C2=C(O)c3ccccc3S(=O)(=O)N2C)s1` [Meloxicam]: in the experiment on ReNCell VM [1] (library: Prestwick), the neuronal differentiation score was inactive: 0. Also, the “dopaminergic neuron differentiation score” value with ReNCell VM [2] (library: Prestwick) is inactive: 0.

For the compound `COc1ccc(C(=O)c2coc3ccc(O)cc23)cc1` [(5-hydroxy-benzofuran-3-yl)-(4-methoxy-phenyl)-methanone], the neuronal differentiation score in the experiment on ReNCell VM [1] (library: Natural) was inactive: 0. For the same compound, in the experiment with ReNCell VM [2] (library: Natural), the “dopaminergic neuron differentiation score” value is inactive: 0.

With `CCCn1c(=O)[nH]c2nc(-c3ccc(S(=O)(=O)O)cc3)[nH]c2c1=O`, the neuronal differentiation score in the experiment on ReNCell VM [1] (library: Tocriscreen) was inactive: 0. The “dopaminergic neuron differentiation score” value with ReNCell VM [2] (library: Tocriscreen) was inactive: 0.

For `CCCCCCCCCCCCCCSCC(=O)O` [Tetradecylthioacetic acid], in the experiment with ReNCell VM [1] (library: LOPAC), the neuronal differentiation score was inactive: 0. The “dopaminergic neuron differentiation score” value with ReNCell VM [2] (library: LOPAC) is inactive: 0.

In the case of `CC(=O)c1cc2ccccc2oc1=O`, the neuronal differentiation score in the experiment on ReNCell VM [1] (library: Spectrum) was inactive: 0. For the same compound, the “dopaminergic neuron differentiation score” value in the experiment on ReNCell VM [2] (library: Spectrum) is inactive: 0.

As for `COc1cc2nc(N3CCN(C(=O)OCc4ccccc4)[C@H](C(=O)NC(C)(C)C)C3)nc(N)c2cc1OC`, the neuronal differentiation score with ReNCell VM [1] (library: LOPAC) is inactive: 0. The “dopaminergic neuron differentiation score” value with ReNCell VM [2] (library: LOPAC) was inactive: 1.

As for `C[C@@](Cc1ccc(O)c(O)c1)(NN)C(=O)O`, in the experiment with ReNCell VM [1] (library: Spectrum), the neuronal differentiation score was inactive: 0. In addition, the “dopaminergic neuron differentiation score” value in the experiment on ReNCell VM [2] (library: Spectrum) is inactive: 0.

For the compound `CC(C)NC[C@H](O)COc1cccc2ccccc12` [(S)-Propranolol hydrochloride], the neuronal differentiation score with ReNCell VM [1] (library: LOPAC) was inactive: 0. Besides, the “dopaminergic neuron differentiation score” value with ReNCell VM [2] (library: LOPAC) is inactive: 0.

As to `NC(=O)N/N=C/c1ccc(Oc2ccc(F)cc2)cc1`, the neuronal differentiation score in the experiment on ReNCell VM [1] (library: Tocriscreen) is inactive: 0. Besides, the “dopaminergic neuron differentiation score” value in the experiment with ReNCell VM [2] (library: Tocriscreen) was inactive: 0.

As to `O=C(c1ccc2c(c1)OCCO2)N1CCCCC1`, the neuronal differentiation score with ReNCell VM [1] (library: LOPAC) was inactive: 0. In addition, in the experiment on ReNCell VM [2] (library: LOPAC), the “dopaminergic neuron differentiation score” value is inactive: 0.

For `N[C@@H](Cc1c[nH]c2ccccc12)C(=O)O` [L-tryptophane], the neuronal differentiation score in the experiment on ReNCell VM [1] (library: Phytochemical) was inactive: 0. For the same compound, the “dopaminergic neuron differentiation score” value in the experiment with ReNCell VM [2] (library: Phytochemical) is inactive: 0.

Regarding `CCc1oc2ccccc2c1C(=O)c1cc(Br)c(O)c(Br)c1`, in the experiment with ReNCell VM [1] (library: Spectrum), the neuronal differentiation score is inactive: 0. The “dopaminergic neuron differentiation score” value with ReNCell VM [2] (library: Spectrum) was inactive: 0.

Turning to `N#Cc1ccc2[nH]cc(CCCCN3CCN(c4ccc5oc(C(N)=O)cc5c4)CC3)c2c1`, the neuronal differentiation score in the experiment on ReNCell VM [1] (library: Spectrum) was inactive: 0. Also, in the experiment on ReNCell VM [2] (library: Spectrum), the “dopaminergic neuron differentiation score” value was inactive: 0.

With `CN1CCN(CCc2ccc(Cl)c(Cl)c2)CC1` [BD 1063 dihydrochloride], in the experiment on ReNCell VM [1] (library: Tocriscreen), the neuronal differentiation score is inactive: 0. The “dopaminergic neuron differentiation score” value with ReNCell VM [2] (library: Tocriscreen) was inactive: 1.

In the case of `COc1ccc2[nH]c3c(c2c1)CCNC3=O` [1,2,3,4-tetrahydro-6-methoxy-1-oxo-beta-carboline], in the experiment with ReNCell VM [1] (library: Natural), the neuronal differentiation score is inactive: 0. Further, in the experiment on ReNCell VM [2] (library: Natural), the “dopaminergic neuron differentiation score” value is inactive: 0.

In the case of `CC(=O)Oc1c(C)cccc1C(=O)O`, the neuronal differentiation score in the experiment with ReNCell VM [1] (library: Spectrum) is inactive: 0. Also, the “dopaminergic neuron differentiation score” value with ReNCell VM [2] (library: Spectrum) was inactive: 0.

Consider `Cc1n[nH]c(=O)[nH]c1=O` [Azathymine, 6], for which, in the experiment with ReNCell VM [1] (library: Phytochemical), the neuronal differentiation score is inactive: 0. Further, in the experiment on ReNCell VM [2] (library: Phytochemical), the “dopaminergic neuron differentiation score” value is inactive: 0.

Turning to `C[N+](C)(C)CCCCCC[N+](C)(C)C` [Hexamethonium bromide], the neuronal differentiation score in the experiment on ReNCell VM [1] (library: LOPAC) was inactive: 0. Further, in the experiment with ReNCell VM [2] (library: LOPAC), the “dopaminergic neuron differentiation score” value was inactive: 0.

On to `NC(=O)N1c2ccccc2C=Cc2ccccc21`, for which the neuronal differentiation score in the experiment on ReNCell VM [1] (library: Spectrum) is inactive: 0. Besides, the “dopaminergic neuron differentiation score” value with ReNCell VM [2] (library: Spectrum) is inactive: 0.

On to `C#CC(N)CCC(=O)O` (stereo not drawn) [gamma-Acetylinic GABA], for which the neuronal differentiation score in the experiment with ReNCell VM [1] (library: LOPAC) is inactive: 0. In addition, the “dopaminergic neuron differentiation score” value in the experiment on ReNCell VM [2] (library: LOPAC) is inactive: 0.

Take `COc1ccc2cc1Oc1ccc(cc1)C[C@H]1c3c(cc4c(c3Oc3cc5c(cc3OC)CCN(C)[C@@H]5C2)OCO4)CCN1C`: the neuronal differentiation score in the experiment on ReNCell VM [1] (library: Spectrum) was inactive: 0. Further, the “dopaminergic neuron differentiation score” value in the experiment with ReNCell VM [2] (library: Spectrum) was inactive: 0.

Take `O=C(O[C@@H]1Cc2c(O)cc(O)cc2O[C@@H]1c1ccc(O)c(O)c1)c1cc(O)c(O)c(O)c1`: in the experiment with ReNCell VM [1] (library: Spectrum), the neuronal differentiation score was inactive: 0. Moreover, the “dopaminergic neuron differentiation score” value in the experiment with ReNCell VM [2] (library: Spectrum) was inactive: 0.

On to `Clc1ccc(CO/N=C(\Cn2ccnc2)c2ccc(Cl)cc2Cl)c(Cl)c1`, for which, in the experiment on ReNCell VM [1] (library: Spectrum), the neuronal differentiation score is inactive: 0. Further, the “dopaminergic neuron differentiation score” value with ReNCell VM [2] (library: Spectrum) is inactive: 0.

As to `CN1CCCN(C(c2ccccc2)c2ccc(Cl)cc2)CC1` (stereo not drawn) [Homochlorcyclizine dihydrochloride], in the experiment with ReNCell VM [1] (library: Prestwick), the neuronal differentiation score was inactive: 0. For the same compound, in the experiment on ReNCell VM [2] (library: Prestwick), the “dopaminergic neuron differentiation score” value is inactive: 0.

Regarding `Cc1ccc(NC(=O)c2cccc(N(C)C)c2)cc1NC(=O)c1ccc(O)cc1`, the neuronal differentiation score with ReNCell VM [1] (library: Tocriscreen) is inactive: 0. Also, the “dopaminergic neuron differentiation score” value in the experiment with ReNCell VM [2] (library: Tocriscreen) is inactive: 0.

Source of the values: the supplement of paper PMC4635364.
